Test results reported in article doi:10.1101/2025.02.21.639493.
Results are given in words; binding and its absence hold for the method and conditions named. Binding seen in cells or lysates may run through a third protein. A yes stands for co-enrichment or nearness to the bait. Other partners may have been found.

B1: RDM4 (endogenous) (protein, UniProt Q8GYP3 1-346)
chain: MDGVGESSTQNEVEEKPVIVRVKRKVGQSLLDAFWLEINERPLKRPTLDFSKLSISDSGERGPSVAEDVKPKKVLVRHLETVTDSETTADIIHSFFESDHNEKSCSKGKFEERKIAFKKDNRKEQRLTKSVQKQQIASENARFEQIWRSRKGNKEGIHEKCHFFDVIRVDTEERRDNAQEFTSLEDQKMLASFLPLLRECIPTAAEEIEADIQSSHTEEYVYDYYAVNEEMDISEDSSKNQFPLVIVEDEEEFCDGSDESDYDSEDSNAEDHPKTDYPEEEEEEEEEDDDDDDDDESEEEKSEASDESDDEETSKRHVRSVLGDDEFDDYAEDVYGYSESDEEFES
B2: REM12 (endogenous) (protein, UniProt P0CAP4 1-446)
chain: MVLNSSDLGPSRCDIRDLPAPSSTNDQGKTELARKKKVKRSNTEIEADASSSDNSCFVALVTASNLRKDALYLPQDLTSSVGLERKYREIVVTDERERRSWALDLRFNKSSDTFYISRGWRSFCDENGKKPGGVFVFKLVGNRETPVLSFCSTESINDGTQGHKNNKYNCMELKSKKKRMRCRDSTSPSQNRFMTLTLTHDNLIKSRRYLPLSFTRDNGLDKPGMIFLLGKTGRKWEANLLREASGRIVLTGKGWKEFAMANGLKSGELFTLEAILEKGTPMLSLVNTQSTNYRSQQGECSRDSEKESSICAEPSRGNKKWKATNNRKERRDSSSAIQNRYVTLTLTPEDVRACTLILPSQFMKANGINKLGKKTLLGQNRKKWFAYLLSKSGFVALGSGWKGFCEANGVKTGESFNLEYIDEQDTTPVFKFCSNSVEYVKFTSLP
B3: CLASSY 3 (CLSY3) (endogenous) (protein, UniProt F4I8S3 1-1410)
chain: MECIGKRVKSRSWQRLQAVNKRKKMETVAPVTSPPKKRRQKKPKNYDSDIEDITPTCNDSVPPPQVSNMYSVPNNSVKESFSRIMRDLNVEKKSGPSSSRLTDGSEQNPCLKERSFRVSDLGVEKKCSPEITDLDVGIPVPRFSKLKDVSEQKNTCLMQKSSPEIADLDLVISVPSSSVLKDVSEEIRFLKDKCSPEIRGLVLEKSVPGEIEILSDSESETEARRRASAKKKLFEESSRIVESISDGEDSSSETDEEEEENQDSEDNNTKDNVTVESLSSEDPSSSSSSSSSSSSSSSSSSSDDESYVKEVVGDNRDDDDLRKASSPIKRVSLVERKALVRYKRSGSSLTKPRERDNKIQKLNHREEEKKERQREVVRVVTKQPSNVVYTCAHCGKENTGNPESHSSFIRPHSIRDEIEDVNNFASTNVSKYEDSVSINSGKTTGAPSRPEVENPETGKELNTPEKPSISRPEIFTTEKAIDVQVPEEPSRPEIYSSEKAKEVQAPEMPSRPEVFSSEKAKEIQVPEMPSIPEIQNSEKAKEVQANNRMGLTTPAVAEGLNKSVVTNEHIEDDSDSSISSGDGYESDPTLKDKEVKINNHSDWRILNGNNKEVDLFRLLVNSVWEKGQLGEEDEADELVSSAEDQSQEQAREDHRKYDDAGLLIIRPPPLIEKFGVEEPQSPPVVSEIDSEEDRLWEELAFFTKSNDIGGNELFSNVEKNISANETPAAQCKKGKHDLCIDLEVGLKCMHCGFVEREIRSMDVSEWGEKTTRERRKFDRFEEEEGSSFIGKLGFDAPNNSLNEGCVSSEGTVWDKIPGVKSQMYPHQQEGFEFIWKNLAGTIMLNELKDFENSDETGGCIMSHAPGTGKTRLTIIFLQAYLQCFPDCKPVIIAPASLLLTWAEEFKKWNISIPFHNLSSLDFTGKENSAALGLLMQKNATARSNNEIRMVKIYSWIKSKSILGISYNLYEKLAGVKDEDKKTKMVREVKPDKELDDIREILMGRPGLLVLDEAHTPRNQRSCIWKTLSKVETQKRILLSGTPFQNNFLELCNVLGLARPKYLERLTSTLKKSGMTVTKRGKKNLGNEINNRGIEELKAVMLPFVHVHKGSILQSSLPGLRECVVVLNPPELQRRVLESIEVTHNRKTKNVFETEHKLSLVSVHPSLVSRCKISEKERLSIDEALLAQLKKVRLDPNQSVKTRFLMEFVELCEVIKEKVLVFSQYIDPLKLIMKHLVSRFKWNPGEEVLYMHGKLEQKQRQTLINEFNDPKSKAKVFLASTKACSEGISLVGASRVILLDVVWNPAVERQAISRAYRIGQKRIVYTYHLVAKGTPEGPKYCKQAQKDRISELVFACSSRHDKGKEKIAEAVTEDKVLDTMVEHSKLGDMFDNLIVQPKEADLVEGFSILMP

These binders were tested against VDD, 3FLAG-tagged (pVDD:VDD-3FLAG) (Arabidopsis (Col-0)) (assay: affinity purification with mass spectrometry).

Q: How did the binding turn out when B1 was run?
A: Its binding is “binds”.

Q: How did the binding turn out when B2 was run?
A: The binding was “binds”.

Q: Which binding does the source give for B3 here?
A: Its binding is “binds”.
